PubChem BioAssay AID504791 – Drosophila RNAi Screening Center | 2011

Purpose: 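Factors in Argonaute-based small RNA production and activity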 (primary screen)
Cells: Drosophila S2-derived reporter cells
Knock-down reagent: long dsRNA against Drosophila genes, about 150-250 ng dsRNA per well (siRNA assay); about 80-120 ng (miRNA assay)
Timing: about 5 days (siRNA assay); about 4 days (miRNA assay)
Conditions: copper sulfate induction of reporters: 25 µM (siRNA assay); 200 mM stated (miRNA assay), 1-2 days before reading
Read-out: 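Per-well ratio of Renilla over firefly light, expressed relative to that plate's average ratio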
Hit rule: 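First-pass picks had plate-scaled ratios over 1.5 for the siRNA assay, over 1.6 for the miRNA assay, or under 0.6; two distinct dsRNAs had to score alike on retest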
The screen tested about 23,000 reagents; below is a random part of those with a known target gene and a result. Of all reagents, 199 (0.86%) are marked active. 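Plate-scaled ratios behind the calls are not deposited; printed light signals are raw; many rows marked increased or decreased are still called inactive.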 No sequences are given here. Not stated in the record: the direction of the score.

CG11898 [DRSC14432] showed stable assay Renilla, run 1 (luminescence) = 4686; stable assay firefly, run 1 (luminescence) = 4.22e5; inactive.
CG12460 (retired record) [DRSC20970] scored stable assay Renilla, run 1 (luminescence) = 6411; stable assay firefly, run 1 (luminescence) = 4.97e5; inactive.
After knock-down of CG8870 [DRSC16452], the record shows stable assay Renilla, run 1 (luminescence) = 7706; stable assay firefly, run 1 (luminescence) = 4.01e5; inactive.
Depletion of CG16926 [DRSC06637] came out at: stable assay Renilla, run 1 (luminescence) = 7842; stable assay firefly, run 1 (luminescence) = 2.74e5; inactive.
CG9018 [DRSC08618] scored stable assay Renilla, run 1 (luminescence) = 3764; stable assay firefly, run 1 (luminescence) = 3.56e5; inactive.
Depletion of beta-PheRS [DRSC15859] came out at: stable assay Renilla, run 1 (luminescence) = 7696; stable assay firefly, run 1 (luminescence) = 3.75e5; inactive.
After knock-down of CG3906 [DRSC04431] the results were stable assay Renilla, run 1 (luminescence) = 2.70e5; stable assay firefly, run 1 (luminescence) = 3.32e5; inactive.
After knock-down of CG8159 [DRSC16392], the record shows stable assay Renilla, run 1 (luminescence) = 6832; stable assay firefly, run 1 (luminescence) = 4.02e5; inactive.
For CG2258 [DRSC18222], the entry reads stable assay Renilla, run 1 (luminescence) = 7035; stable assay firefly, run 1 (luminescence) = 4.45e5; inactive.
After knock-down of CG2818 [DRSC00540], the screen gave stable assay Renilla, run 1 (luminescence) = 66716; stable assay firefly, run 1 (luminescence) = 1.96e5; inactive.
After knock-down of SmydA-7 [DRSC07340], the screen gave stable assay Renilla, run 1 (luminescence) = 9001; stable assay firefly, run 1 (luminescence) = 3.18e5; inactive.
For Mip [DRSC10639], the values are miRNA reporter change reporter ratio lowered past the hit cutoff; stable assay Renilla, run 1 (luminescence) = 8136; stable assay firefly, run 1 (luminescence) = 2.90e5; inactive.
Silencing of CG10337 [DRSC02038] came out at: stable assay Renilla, run 1 (luminescence) = 6624; stable assay firefly, run 1 (luminescence) = 3.99e5; inactive.
Su(z)12 [DRSC11293] showed stable assay Renilla, run 1 (luminescence) = 7180; stable assay firefly, run 1 (luminescence) = 4.26e5; inactive.
Depletion of CG12728 [DRSC17883] came out at: stable assay Renilla, run 1 (luminescence) = 8497; stable assay firefly, run 1 (luminescence) = 4.48e5; inactive.
Silencing of Uch-L5R [DRSC19825] gave: stable assay Renilla, run 1 (luminescence) = 4135; stable assay firefly, run 1 (luminescence) = 3.07e5; inactive.
Knock-down of CG6983 [DRSC10757] gave: stable assay Renilla, run 1 (luminescence) = 7725; stable assay firefly, run 1 (luminescence) = 4.57e5; inactive.
Against alpha-Est10 [DRSC12613], the values are stable assay Renilla, run 1 (luminescence) = 7231; stable assay firefly, run 1 (luminescence) = 3.37e5; inactive.
Silencing of PPYR1 [DRSC19612] came out at: stable assay Renilla, run 1 (luminescence) = 6382; stable assay firefly, run 1 (luminescence) = 5.96e5; inactive.
After knock-down of lbl [DRSC16986] the results were stable assay Renilla, run 1 (luminescence) = 7035; stable assay firefly, run 1 (luminescence) = 3.24e5; inactive.
Silencing of dac [DRSC03518] resulted in: stable assay Renilla, run 1 (luminescence) = 7200; stable assay firefly, run 1 (luminescence) = 3.96e5; inactive.
With knock-down of CG2070 [DRSC06814] the results were stable assay Renilla, run 1 (luminescence) = 6072; stable assay firefly, run 1 (luminescence) = 3.74e5; inactive.
After knock-down of CG42366 [DRSC02760] the results were stable assay Renilla, run 1 (luminescence) = 5888; stable assay firefly, run 1 (luminescence) = 3.59e5; inactive.
For CG42366 [DRSC23297], the values are stable assay Renilla, run 1 (luminescence) = 3879; stable assay firefly, run 1 (luminescence) = 3.19e5; inactive.
For CG15784 [DRSC18090], the values are stable siRNA reporter change reporter ratio lowered past the hit cutoff; stable assay Renilla, run 1 (luminescence) = 5631; stable assay firefly, run 1 (luminescence) = 5.09e5; inactive.
CG17974 [DRSC04299] gave stable assay Renilla, run 1 (luminescence) = 6650; stable assay firefly, run 1 (luminescence) = 4.54e5; inactive.
After knock-down of CG43394 [DRSC01013], the screen gave stable assay Renilla, run 1 (luminescence) = 5152; stable assay firefly, run 1 (luminescence) = 3.78e5; inactive.
After knock-down of sav [DRSC14681], the screen gave stable assay Renilla, run 1 (luminescence) = 6638; stable assay firefly, run 1 (luminescence) = 3.22e5; inactive.
With knock-down of sav [DRSC14682], the record shows stable assay Renilla, run 1 (luminescence) = 6810; stable assay firefly, run 1 (luminescence) = 2.84e5; inactive.

Records listed so far whose gene name begins with S or s:
SmydA-7 [DRSC07340] | stable assay Renilla, run 1 (luminescence): 9001; stable assay firefly, run 1 (luminescence): 3.18e5; Outcome: inactive
Su(z)12 [DRSC11293] | stable assay Renilla, run 1 (luminescence): 7180; stable assay firefly, run 1 (luminescence): 4.26e5; Outcome: inactive
sav [DRSC14681] | stable assay Renilla, run 1 (luminescence): 6638; stable assay firefly, run 1 (luminescence): 3.22e5; Outcome: inactive
sav [DRSC14682] | stable assay Renilla, run 1 (luminescence): 6810; stable assay firefly, run 1 (luminescence): 2.84e5; Outcome: inactive
